# Laboratory results: the supplement of paper PMC12823440, “Inhibitors supercharge kinase turnover through native proteolytic circuits” (Nature, 2025)
# The chains behind the UniProt entries cited, without tags or fusion partners. Where a name states a change or a piece, a line headed by the entry shows the natural chain unless it says otherwise.
# UniProt P50613: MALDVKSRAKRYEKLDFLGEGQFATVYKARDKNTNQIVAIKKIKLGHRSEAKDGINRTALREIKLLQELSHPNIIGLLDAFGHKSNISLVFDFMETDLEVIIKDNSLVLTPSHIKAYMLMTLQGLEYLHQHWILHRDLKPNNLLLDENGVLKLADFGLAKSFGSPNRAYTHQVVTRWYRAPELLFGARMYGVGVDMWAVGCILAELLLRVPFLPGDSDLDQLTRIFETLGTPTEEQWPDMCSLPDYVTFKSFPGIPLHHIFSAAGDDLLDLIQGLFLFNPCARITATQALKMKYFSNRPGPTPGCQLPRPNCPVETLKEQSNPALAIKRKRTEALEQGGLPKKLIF
# UniProt P50750, whole entry: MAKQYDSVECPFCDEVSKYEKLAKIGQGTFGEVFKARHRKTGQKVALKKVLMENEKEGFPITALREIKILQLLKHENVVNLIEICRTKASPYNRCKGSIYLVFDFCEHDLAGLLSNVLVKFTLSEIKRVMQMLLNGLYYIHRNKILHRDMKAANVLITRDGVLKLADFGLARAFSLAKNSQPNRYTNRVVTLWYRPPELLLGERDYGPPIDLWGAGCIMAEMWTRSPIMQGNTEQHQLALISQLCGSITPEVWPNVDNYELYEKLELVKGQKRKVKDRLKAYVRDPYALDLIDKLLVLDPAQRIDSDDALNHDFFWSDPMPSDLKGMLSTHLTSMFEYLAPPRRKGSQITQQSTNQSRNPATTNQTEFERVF
# Where a name gives a salt, the structure may show the parent alone. The list shows a part of the results. Hit calls seldom repeat between salt and free forms of one compound.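 In K562 cells expressing nanoluciferase-fused kinases, luminescence was recorded at 4 h intervals between 2 and 18 h, normalized as percent of control with DMSO at 100% and a positive control at 0%. A significant (2 sigma) signal drop marks a time point as decreased. The authors' rule for a hit is not shown and takes in more than the number of time points.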
# Biological target: CDK7 (UniProt P50613)
# Assay: number of time points (of 4; 2 h point missing) at which kinase-Nluc abundance scored as decreased, DMSO-normalised (count); higher = more persistent destabilization
# Details: K562; 2-18 h
row,Compound,number of time points
1,O=Nc1c(-c2c(O)[nH]c3cc(Br)ccc23)[nH]c2ccccc12 [GSK 3 Inhibitor IX] (2.5 µM),0
2,C#Cc1cccc(Nc2ncnc3cc(OC)c(NC(=O)N4C[C@H]5CCN(C)[C@H]5C4)cc23)c1 [Theliatinib] (10 µM),0
3,Fc1ccc2[nH]ccc2c1-c1nc(N2CCOCC2)c2sc(CN3CCN(CC4CC4)CC3)cc2n1 (10 µM),0
4,COc1c(O)cc2oc(-c3ccc(O)cc3)cc(=O)c2c1O [Hispidulin] (10 µM),0
5,Cc1cc(CSc2ccccc2C(=O)NCCNc2ccc(C(F)(F)F)cc2[N+](=O)[O-])on1 (10 µM),0

# Biological target: CDK9 (UniProt P50750)
# Assay: as above
# Details: K562; 2-18 h
row,Compound,number of time points
1,Cc1cc(C(=O)NC(C)(C)C)cc(C#Cc2ccc3c4c(oc3c2)C(C)(C)c2cc(NS(C)(=O)=O)ccc2C4=O)n1 (10 µM),1
2,COCCOc1ccc2c(c1)ncn2-c1ccc2cccc(N3CCC(N)CC3)c2n1 (10 µM),0
3,COc1ccc2c(Oc3ccc4c(C(=O)Nc5ccccc5N)cccc4c3)ccnc2c1 [Chiauranib] (10 µM),0
4,COc1cc2c(cc1OC)/C(=C/c1ccc(O)cc1)C(=O)N2 (10 µM),0
5,COc1cc2ncnc(Nc3ccc(O)c(Br)c3)c2cc1OC (10 µM),0
6,O=C(O)[C@H]1O[C@@H](Oc2cc3oc(-c4ccc(O)cc4)cc(=O)c3c(O)c2O)[C@H](O)[C@@H](O)[C@@H]1O [Scutellarin] (10 µM),0
7,NCCOc1ccc(Cl)cc1C(=O)Nc1ccc([N+](=O)[O-])cc1Cl [HJC0152 hydrochloride] (2 µM),0
8,CC(Sc1nc2c(cnn2-c2cccc(Cl)c2)c(=O)[nH]1)C(N)=O (stereo not drawn) (10 µM),0
9,N#C/C(=C\c1ccc(O)c(O)c1)C(=O)O [Tyrphostin AG30] (10 µM),0
10,COc1cc(N2CCOCC2)ccc1Nc1ncc(F)c(Nc2ccccc2NS(C)(=O)=O)n1 (10 µM),0
11,CCC(=O)Nc1cccc(Oc2nc(Nc3ccc(N4CCN(C)CC4)cc3OC)ncc2Cl)c1 (10 µM),0
12,O=C1OC(/C=C/c2ccccc2)=NC/1=C\c1cccnc1 (10 µM),0
13,Cc1cccc(-c2[nH]ncc2-c2ccnc3ccccc23)n1 (10 µM),0
14,C=CC(=O)Nc1cc(Nc2nccc(-c3cn(C)c4ccccc34)n2)c(OC)cc1OCCN(C)C [Rezivertinib] (2.5 µM),0
15,Nc1nc(N)c2nc(-c3cccc(O)c3)c(-c3cccc(O)c3)nc2n1 (10 µM),0
16,CCN1CCN(Cc2cnc(Nc3cc(-c4cc(F)c5nc(C)n(C(C)C)c5c4)c(F)cn3)nc2)CC1 (10 µM),0
17,Nc1[nH]nc2nc(-c3ccc(NS(=O)(=O)c4cc(Cl)ccc4Cl)cc3)cnc12 (10 µM),0
18,C=CC(=O)Nc1cccc(Oc2nc(Nc3ccc(N4CCN(C)CC4)c(F)c3)nc3[nH]ccc23)c1 [Avitinib (maleate)] (2.5 µM),0
19,Nc1nc(NCCNc2ncc(-n3ccnc3)c(-c3ccc(Cl)cc3Cl)n2)ccc1[N+](=O)[O-] (2.5 µM),0

row,Compound,number of time points
1,O=C1Nc2ccc(I)cc2/C1=C/c1cc(Br)c(O)c(Br)c1 (10 µM),4
2,C=C1C(=O)[C@@]23[C@H](O)C[C@@H]4C(C)(C)C(=O)CC[C@@]4(C)[C@@H]2CC[C@@H]1[C@H]3O [Glaucocalyxin A] (2.5 µM),0
3,C=C1CCC[C@]2(C)C=C3OC(=O)C(C)=C3C[C@@H]12 [Atractylenolide I] (10 µM),0
4,Cc1nn(C)cc1-c1nc2c(N3CCN(Cc4ccc(Cl)cc4)CC3)c(Cl)cnc2[nH]1 (10 µM),0
5,Brc1ccc(CSc2nc3ccccc3o2)cc1 [BMP signaling agonist sb4] (10 µM),0
6,CN1CCN(c2cc(-c3ccncc3)c(-c3ccc4ccccc4c3)nn2)CC1 (10 µM),0
7,COc1cc(-c2cc(OP(=O)(O)O)cc(-c3cc(OC)c(OC)c(OC)c3)c2)cc(OC)c1OC [Stafia-1] (10 µM),0
8,CC(C)(C)Cc1[nH]nc2c1[C@@](C)(c1ccccc1)C1=C(CC(C)(C)CC1=O)N2 (10 µM),0
9,Cc1c(C(=O)Nc2ccc(Oc3ccnc4[nH]cc(-c5ccccc5)c34)c(F)c2)c(=O)n(-c2ccc(F)cc2)n1C (10 µM),0
10,N#Cc1ccc(-c2cnc3[nH]cc(NC(=O)c4cccnc4)c3c2)cc1 (10 µM),0
11,Cc1ccc(C(=O)NC2CC2)cc1-n1ncc(C(=O)c2cccc(C#N)c2)c1N [Acumapimod] (10 µM),0
12,COc1cc(N2CCC(N3CCN(C)CC3)CC2)ccc1Nc1ncc(Cl)c(-c2c[nH]c3ccccc23)n1 (2.5 µM),0
13,Cc1cc(Nc2cc(N3CCN(C)CC3)nc(Nc3ccc([N+](=O)[O-])cc3)n2)n[nH]1 (2.5 µM),0
14,C=CC(=O)N1CCC[C@@H](n2nc(-c3ccc(Oc4ccccc4)cc3)c3c(N)n[nH]c(=O)c32)C1 [BTK inhibitor 17] (10 µM),0
15,O=Nc1c(-c2c(O)[nH]c3cc(Br)ccc23)[nH]c2ccccc12 [GSK 3 Inhibitor IX] (2.5 µM),0
16,C#Cc1cccc(Nc2ncnc3cc(OC)c(NC(=O)N4C[C@H]5CCN(C)[C@H]5C4)cc23)c1 [Theliatinib] (10 µM),0
17,Fc1ccc2[nH]ccc2c1-c1nc(N2CCOCC2)c2sc(CN3CCN(CC4CC4)CC3)cc2n1 (10 µM),0
18,COc1c(O)cc2oc(-c3ccc(O)cc3)cc(=O)c2c1O [Hispidulin] (10 µM),0
19,Cc1cc(CSc2ccccc2C(=O)NCCNc2ccc(C(F)(F)F)cc2[N+](=O)[O-])on1 (10 µM),0
